The source of these data is paper PMC10391610, “Survivin prevents the polycomb repressor complex 2 from methylating histone 3 lysine 27” (iScience, 2023).

Protein sequences, listed by entry. Tags and fused reporters are not part of them.
UniProt O15392: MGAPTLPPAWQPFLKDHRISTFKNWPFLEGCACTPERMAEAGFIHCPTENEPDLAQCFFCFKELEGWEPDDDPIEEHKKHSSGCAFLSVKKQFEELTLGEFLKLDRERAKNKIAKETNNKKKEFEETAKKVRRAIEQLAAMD

Results are given in words; binding and its absence hold for the method and conditions named. Some binding calls cover weakened binding; strength is not graded here.

In the experiment the target is survivin (His-tagged, from pHIS8) (human) (UniProt O15392). Description: BLI; reverse experiment: survivin (2.5 μM) immobilised on AR2G biosensors; EZH2 peptide as analyte at 21.2 μM, 2.12 μM, 212 nM, 21.2 nM; survivin SEC buffer; 30°C; Bayesian 1:1 model, apparent dissociation constant; both purified. Background: In BLI a coated tip is dipped into the sample, and binding shifts an interference pattern.

On to VELVNALGQYNDDDDDDDGDDPEEREEKQKDLEDHRDDKE [EZH2_(172-211) peptide], for which the binding result is “binds”.
